The values that follow come from paper PMC10150531.

Amino acid sequences for entries named in this document (tags omitted). A change or cut given only in a name is not applied to a line headed by its entry. Chains listed by the source or under a name are the forms on record and can include a tag or linker. Residues count along the entry.
UniProt P53396: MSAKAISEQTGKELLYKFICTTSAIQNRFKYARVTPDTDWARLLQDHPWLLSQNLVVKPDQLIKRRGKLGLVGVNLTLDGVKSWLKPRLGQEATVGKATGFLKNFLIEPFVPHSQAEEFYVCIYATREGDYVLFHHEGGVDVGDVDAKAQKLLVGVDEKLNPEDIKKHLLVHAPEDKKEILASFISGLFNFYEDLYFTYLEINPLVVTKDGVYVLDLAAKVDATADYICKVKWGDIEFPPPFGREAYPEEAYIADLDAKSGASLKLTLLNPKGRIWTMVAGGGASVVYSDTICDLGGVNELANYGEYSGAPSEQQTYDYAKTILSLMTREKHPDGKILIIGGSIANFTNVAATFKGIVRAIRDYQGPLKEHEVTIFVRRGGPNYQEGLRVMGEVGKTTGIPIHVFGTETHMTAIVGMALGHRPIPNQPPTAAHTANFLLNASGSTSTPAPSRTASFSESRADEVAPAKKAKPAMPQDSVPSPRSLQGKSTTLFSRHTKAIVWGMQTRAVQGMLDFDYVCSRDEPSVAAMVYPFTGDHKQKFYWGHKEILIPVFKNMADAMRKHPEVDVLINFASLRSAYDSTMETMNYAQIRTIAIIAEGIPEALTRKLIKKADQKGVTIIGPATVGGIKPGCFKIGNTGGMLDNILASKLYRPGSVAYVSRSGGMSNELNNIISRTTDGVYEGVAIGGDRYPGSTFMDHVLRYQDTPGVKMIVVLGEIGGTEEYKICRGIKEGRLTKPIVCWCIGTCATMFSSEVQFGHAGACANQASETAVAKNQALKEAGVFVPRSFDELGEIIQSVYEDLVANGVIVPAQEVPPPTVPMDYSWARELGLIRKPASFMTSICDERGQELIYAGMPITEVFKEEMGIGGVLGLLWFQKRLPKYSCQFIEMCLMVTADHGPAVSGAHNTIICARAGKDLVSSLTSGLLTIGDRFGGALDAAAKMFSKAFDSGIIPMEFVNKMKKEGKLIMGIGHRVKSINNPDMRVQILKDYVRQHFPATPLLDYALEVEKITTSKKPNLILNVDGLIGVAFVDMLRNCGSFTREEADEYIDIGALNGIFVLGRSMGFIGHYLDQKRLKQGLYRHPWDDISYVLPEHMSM
Flag-tagged ACLY mutant A3 (amino acids 621-820, CoA-ligase domain): residues 621-820 of P53396
UniProt Q9UGP8: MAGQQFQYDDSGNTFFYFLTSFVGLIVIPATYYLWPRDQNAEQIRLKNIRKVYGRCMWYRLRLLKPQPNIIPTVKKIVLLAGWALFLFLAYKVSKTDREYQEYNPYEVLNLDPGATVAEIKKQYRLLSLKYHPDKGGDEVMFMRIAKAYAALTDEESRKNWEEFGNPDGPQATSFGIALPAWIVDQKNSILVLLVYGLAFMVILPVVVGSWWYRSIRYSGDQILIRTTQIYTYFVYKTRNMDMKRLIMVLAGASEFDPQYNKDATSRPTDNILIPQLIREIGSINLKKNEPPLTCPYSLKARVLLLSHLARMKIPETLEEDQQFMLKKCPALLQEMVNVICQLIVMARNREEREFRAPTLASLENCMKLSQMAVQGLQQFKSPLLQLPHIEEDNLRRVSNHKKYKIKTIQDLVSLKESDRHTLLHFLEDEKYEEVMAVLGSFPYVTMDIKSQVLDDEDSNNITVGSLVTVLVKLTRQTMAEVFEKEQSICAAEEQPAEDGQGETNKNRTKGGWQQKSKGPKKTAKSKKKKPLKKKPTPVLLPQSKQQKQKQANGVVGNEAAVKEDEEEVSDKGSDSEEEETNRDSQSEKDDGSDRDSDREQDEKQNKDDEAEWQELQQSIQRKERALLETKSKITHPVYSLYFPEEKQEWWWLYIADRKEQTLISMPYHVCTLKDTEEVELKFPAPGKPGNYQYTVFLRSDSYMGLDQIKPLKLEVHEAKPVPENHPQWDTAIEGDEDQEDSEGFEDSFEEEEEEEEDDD
UniProt O75460, residues 19-977: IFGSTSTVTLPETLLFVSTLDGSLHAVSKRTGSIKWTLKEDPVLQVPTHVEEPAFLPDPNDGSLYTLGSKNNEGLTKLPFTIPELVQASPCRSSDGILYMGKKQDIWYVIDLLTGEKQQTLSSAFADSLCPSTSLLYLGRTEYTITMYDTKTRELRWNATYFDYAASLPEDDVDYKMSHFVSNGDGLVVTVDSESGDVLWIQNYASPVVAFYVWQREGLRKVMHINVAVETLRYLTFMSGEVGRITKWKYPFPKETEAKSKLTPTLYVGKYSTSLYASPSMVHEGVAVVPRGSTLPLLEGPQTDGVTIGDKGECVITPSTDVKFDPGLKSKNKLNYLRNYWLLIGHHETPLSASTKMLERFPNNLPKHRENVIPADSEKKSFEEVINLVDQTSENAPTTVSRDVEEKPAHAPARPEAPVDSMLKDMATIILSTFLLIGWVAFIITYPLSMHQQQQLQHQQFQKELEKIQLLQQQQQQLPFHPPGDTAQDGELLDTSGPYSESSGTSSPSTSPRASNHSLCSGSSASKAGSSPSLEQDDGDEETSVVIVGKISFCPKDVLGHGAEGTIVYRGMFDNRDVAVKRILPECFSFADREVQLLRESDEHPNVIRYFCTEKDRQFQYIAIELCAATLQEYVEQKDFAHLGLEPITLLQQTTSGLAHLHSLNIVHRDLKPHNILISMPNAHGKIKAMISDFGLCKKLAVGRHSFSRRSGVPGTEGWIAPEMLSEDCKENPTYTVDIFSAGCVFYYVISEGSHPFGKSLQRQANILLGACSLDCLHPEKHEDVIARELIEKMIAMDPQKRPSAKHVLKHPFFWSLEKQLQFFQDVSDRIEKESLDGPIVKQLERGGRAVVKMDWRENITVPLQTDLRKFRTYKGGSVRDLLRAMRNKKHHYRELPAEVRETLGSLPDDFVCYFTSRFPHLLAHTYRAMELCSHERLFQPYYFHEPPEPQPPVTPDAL
UniProt P84022: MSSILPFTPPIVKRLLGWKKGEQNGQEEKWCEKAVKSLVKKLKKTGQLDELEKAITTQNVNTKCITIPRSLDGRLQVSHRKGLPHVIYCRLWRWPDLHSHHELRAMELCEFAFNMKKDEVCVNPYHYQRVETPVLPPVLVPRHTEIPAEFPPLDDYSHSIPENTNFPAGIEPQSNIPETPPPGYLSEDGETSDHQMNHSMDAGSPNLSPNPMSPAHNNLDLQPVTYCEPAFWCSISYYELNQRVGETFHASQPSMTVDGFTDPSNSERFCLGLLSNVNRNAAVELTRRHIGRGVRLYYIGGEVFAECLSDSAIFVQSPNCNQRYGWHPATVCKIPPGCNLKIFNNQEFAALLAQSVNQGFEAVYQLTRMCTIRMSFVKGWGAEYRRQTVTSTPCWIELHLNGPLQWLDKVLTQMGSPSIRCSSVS

These are yes or no findings as the source states them, for the method shown. In cells and extracts the contact can be indirect. Some results given as binding are weak or reduced against the parent protein; the word gives no strength.

The target of test [1] is Adenosine triphosphate (ATP)-citrate lyase (ACLY) (human (endogenous in Huh7)) (UniProt P53396). In words: co-IP; Huh7 cells transfected as indicated (Flag-SEC63, T537A, T537E); co-immunoprecipitation with the indicated antibody.
Test [2] concerns the target SEC63 (human (endogenous in Huh7)) (UniProt Q9UGP8). In words: co-IP; endogenous proteins; Huh7 cell lysates in Buffer A (25 mM Tris-Cl pH 7.5, 150 mM KCl, 1 mM DTT, 2 mM EDTA, 0.5 mM PMSF, 0.2% Nonidet P-40); antibodies coupled to protein A-Sepharose beads, 2 h at 4 °C; western blot; untreated cells and cells treated with TM (5 μg/mL) or TG (1 μM) for 8 h.
Test [3] concerns the target Adenosine triphosphate (ATP)-citrate lyase (ACLY) (human (endogenous in Huh7)) (UniProt P53396). The test is described as above.
The target in test [4] is Flag-tagged ACLY mutant A3 (amino acids 621-820, CoA-ligase domain) (UniProt P53396). Nature of the test: co-IP; Huh7 cells transfected with Flag-tagged ACLY or SEC63 deletion mutants and treated with MG132; Co-IP with anti-Flag antibodies.
In test [5] the target is Adenosine triphosphate (ATP)-citrate lyase (ACLY) (human (endogenous in Huh7)) (UniProt P53396). Nature of the test: co-IP; Huh7 cells transfected with indicated plasmids (Flag-SEC63), or control and SEC63-depleted cells treated with ER stress drugs; Co-IP with anti-ACLY antibody.

As to “Flag-tagged SEC63 (from UniProt Q9UGP8 1-760)”, the binding entry in test [1] is given as “binds”.

“Flag-tagged SEC63 T537A (from UniProt Q9UGP8 1-760)”: the binding entry in test [1] was “binds”.

Regarding “Flag-tagged SEC63 T537E (from UniProt Q9UGP8 1-760)”, the binding result in test [1] is “binds”.

“Inositol-requiring enzyme 1α (IRE1α) (from UniProt O75460 19-977)”: the binding entry in test [2] was “binds”.

SEC63 (from UniProt Q9UGP8 1-760): the binding result in test [3] and in test [4] was “binds” throughout.

Regarding SMAD3 (from UniProt P84022 1-425), the binding entry in test [2] is reported as “binds”.

B1: KLHL25 (Kelch-like family member 25) (protein, UniProt Q9H0H3 1-589)
chain: MSVSVHETRKSRSSTGSMNVTLFHKASHPDCVLAHLNTLRKHCMFTDVTLWAGDRAFPCHRAVLAASSRYFEAMFSHGLRESRDDTVNFQDNLHPEVLELLLDFAYSSRIAINEENAESLLEAGDMLQFHDVRDAAAEFLEKNLFPSNCLGMMLLSDAHQCRRLYEFSWRMCLVHFETVRQSEDFNSLSKDTLLDLISSDELETEDERVVFEAILQWVKHDLEPRKVHLPELLRSVRLALLPSDCLQEAVSSEALLMADERTKLIMDEALRCKTRILQNDGVVTSPCARPRKAGHTLLILGGQTFMCDKIYQVDHKAKEIIPKADLPSPRKEFSASAIGCKVYVTGGRGSENGVSKDVWVYDTVHEEWSKAAPMLIARFGHGSAELENCLYVVGGHTSLAGVFPASPSVSLKQVEKYDPGANKWMMVAPLRDGVSNAAVVSAKLKLFVFGGTSIHRDMVSKVQCYDPSENRWTIKAECPQPWRYTAAAVLGSQIFIMGGDTEFTAASAYRFDCETNQWTRIGDMTAKRMSCHALASGNKLYVVGGYFGTQRCKTLDCYDPTSDTWNCITTVPYSLIPTAFVSTWKHLPA
Take B1: the binding entry in test [5] is recorded as “binds”.
